“And” between values parts separate entries of the source, which are not always exact repeats. Equal entries are not always repeated. Inconclusive means that the source gave no clear call. Such entries were picked first, then a sample of the others. Potencies beside an inconclusive call are fits to weak or partial responses and may not hold up. The source made the active and inactive calls. How the source made its calls: active means hit-call score of the fitted dose curve at least 0.9, where 1 is the maximum; inconclusive means response in the unintended direction; inactive means score below 0.9.
assay: CCTE_Mundy_HCI_hNP1_Pro_ResponderAvgInten: CCTE's Proliferation Assay in human neuroprogenitor cells, Mundy Lab (AID 2284224)
Procedure: CCTE_Mundy_HCI_hNP1_Pro is a multiplexed, cell-based-readout assay that uses neural stem cells derived from a neuroepithelial cell lineage of WA09 embryonic cells with measurements taken at 26.25 hours after chemical dosing in a microplate: 96-well plate.CCTE_Mundy_HCI_hNP1_Pro_ResponderAvgInten is one of three components of the CCTE_Mundy_HCI_hNP1_Pro assay. It measures proliferation related to percentage of BrdU positive cells using High Content Imaging of fluorescently labelled markers.Data from the assay component CCTE_Mundy_HCI_hNP1_Pro_ResponderAvgInten was analyzed at the endpoint CCTE_Mundy_HCI_hNP1_Pro_ResponderAvgInten in the positive analysis fitting direction relative to DMSO as the negative control and baseline of activity. Using a type of growth reporter, loss -of-signal activity can be used to understand viability effects.
Human neural progenitor cells (hNP1) were obtained as cryopreserved cells from ArunA Biomedical, Athens Georgia. Cells are plated on pre-coated poly-L-ornithine/laminin clear bottom and opaque 96 well plates (day 0). Plates are placed in a 37 °C, 5% CO2 incubator for 40 to 44 hours at which time plates are removed from the incubator and 10 uL of a freshly made chemical solution is added to each well. Twenty hours after the addition of the chemicals, the clear plates are removed from the incubator and 11 uL of a BrdU solution is added to each well. The plates are returned to the incubator for four hours. After four hours, the plates are fixed with a 4% paraformaldehyde solution.

| Structure (SMILES) | AC50 | outcome |
| --- | --- | --- |
| O=C1CCC(N2C(=O)c3ccccc3C2=O)C(=O)N1 (stereo not given) | inconclusive: 0.626 nM | – |
| OC[C@@H](O)[C@@H](O)[C@H](O)[C@@H](O)CO | – | inactive |
| Oc1ccccc1 | inconclusive: 0.292 nM | – |
| OCC(F)(F)C(F)(F)C(F)(F)F | inconclusive: 15000 nM | – |
| FC(F)(F)C(F)(F)C(F)(F)C(F)(F)CCI | inconclusive: 24 nM | – |
| O=C1O[C@H]([C@@H](O)CO)C(O)=C1O | inconclusive: 353 nM | – |
| Cc1c(C(=O)c2c[nH]n(C)c2=O)ccc(S(C)(=O)=O)c1C1=NOCC1 | inconclusive: 15000 nM | – |
| CCCN(CCC)C(=O)SCC | – | inactive |
| O=C(O)C(F)(F)C(F)(F)C(F)(F)C(F)(F)C(F)(F)C(F)(F)C(F)(F)C(F)(F)Cl | inconclusive: 15000 nM | – |
| Oc1c(Cl)cc(Cl)c(Cl)c1Cc1c(O)c(Cl)cc(Cl)c1Cl | – | inactive |
| O=C(O)CCC(F)(F)C(F)(F)C(F)(F)F | inconclusive: 0.1 nM | – |
| c1ccc2cc3ccccc3cc2c1 | inconclusive: 13.1 nM | – |
| N#Cc1ccc(CC(=NNC(=O)Nc2ccc(OC(F)(F)F)cc2)c2cccc(C(F)(F)F)c2)cc1 | – | inactive |
| O=C(O)C(F)(F)C(F)(F)C(F)(F)OC(F)(C(F)(F)F)C(F)(F)F | inconclusive: 717 nM | – |
| NC(=O)C(F)(F)C(F)(F)C(F)(F)C(F)(F)C(N)=O | inconclusive: 15000 nM | – |
| C=CC(=O)OCC(F)(F)C(F)(F)C(F)(F)C(F)(F)COC(=O)C=C | inconclusive: 15000 nM | – |
| O=C(Cl)C(F)(F)C(F)(F)C(F)(F)C(=O)Cl | inconclusive: 15000 nM | – |
| CN1CCC[C@H]1c1cccnc1 | inconclusive: 0.153 nM | – |
| N[C@H]1C(O)O[C@H](CO)[C@H](O)[C@@H]1O (stereo not given in full) | – | inactive |
| FC(F)(F)C(F)(F)C(F)(F)C(F)(F)C(F)(F)C(F)(F)I | – | inactive |

| Structure (SMILES) | AC50 | outcome |
| --- | --- | --- |
| NNC(=O)c1ccncc1 | inconclusive: 0.408 nM | – |
| O=C(O)C(F)(F)C(F)(F)C(F)(F)C(F)(F)C(=O)O | – | inactive |
| O=C(CC(=O)C(F)(F)C(F)(F)F)C(F)(F)F | inconclusive: 0.1 nM | – |
| C#CCOC(=O)[C@@H](C)Oc1ccc(Oc2ncc(Cl)cc2F)cc1 | active: 50000 nM | – |
| CN1C(=O)CC[C@H]1c1cccnc1 | inconclusive: 0.461 nM | – |
| O=C(F)C1(F)C(F)(F)C(F)(F)C(F)(F)C(F)(F)C1(F)F | inconclusive: 293 nM | – |
| CC[C@H]1OC(=O)[C@H](C)[C@@H](O[C@H]2C[C@@](C)(OC)[C@@H](O)[C@H](C)O2)[C@H](C)[C@@H](O[C@@H]2O[C@H](C)C[C@H](N(C)C)[C@H]2O)[C@](C)(O)C[C@@H](C)C(=O)[C@H](C)[C@@H](O)[C@]1(C)O | inconclusive: 15000 nM | – |
| CC(C)(C)C(=O)CC(=O)C(F)(F)C(F)(F)C(F)(F)F | – | inactive |
| O=C1NC(=O)C(c2ccccc2)(c2ccccc2)N1 | inconclusive: 50000 nM | – |
| COCCc1ccc(OCC(O)CNC(C)C)cc1 (stereo not given) | inconclusive: 1.23 nM | – |
| Nc1ccn([C@@H]2O[C@H](CO)[C@@H](O)[C@@H]2O)c(=O)n1 | active: 9.56 nM and active: 3.83 nM | – |
| CC(CCl)OP(=O)(OC(C)CCl)OC(C)CCl (stereo not given) | inconclusive: 2920 nM | – |
| C=CC(=O)OCC(F)(F)C(F)(F)C(F)(F)COC(=O)C=C | – | inactive |
| CC1=C(/C=C/C(C)=C/C=C/C(C)=C/C(=O)O)C(C)(C)CCC1 | inconclusive: 0.1 nM | – |
| CC(=O)Nc1ccc(O)cc1 | – | inactive |
| NC(=O)NO | inconclusive: 9920 nM | – |
| O=C(O)C(F)(F)C(F)(F)C(F)(F)OC(F)(F)F | inconclusive: 97.7 nM | – |
| OC[C@@H](O)[C@@H](O)[C@H](O)[C@H](O)CO | inconclusive: 15000 nM | – |
| Cn1cc[nH]c1=S | inconclusive: 15000 nM | – |
| O=P(O)(O)OCCC(F)(F)C(F)(F)C(F)(F)C(F)(F)C(F)(F)C(F)(F)F | inconclusive: 44 nM | – |

Of the compounds above, 3 have sulfur.

| Structure (SMILES) | AC50 | outcome |
| --- | --- | --- |
| Cc1c(C(=O)c2c[nH]n(C)c2=O)ccc(S(C)(=O)=O)c1C1=NOCC1 | inconclusive: 15000 nM | – |
| CCCN(CCC)C(=O)SCC | – | inactive |
| Cn1cc[nH]c1=S | inconclusive: 15000 nM | – |

From PubChem BioAssay (EPA / NIEHS)
